Data taken from ChEMBL document CHEMBL3988442, “University of Dundee, Small-Polar-MMV Screening Library” (2021).

Protein sequences, listed by entry. Tags and fused reporters are not part of them.
UniProt E9BF75, entry or part of it: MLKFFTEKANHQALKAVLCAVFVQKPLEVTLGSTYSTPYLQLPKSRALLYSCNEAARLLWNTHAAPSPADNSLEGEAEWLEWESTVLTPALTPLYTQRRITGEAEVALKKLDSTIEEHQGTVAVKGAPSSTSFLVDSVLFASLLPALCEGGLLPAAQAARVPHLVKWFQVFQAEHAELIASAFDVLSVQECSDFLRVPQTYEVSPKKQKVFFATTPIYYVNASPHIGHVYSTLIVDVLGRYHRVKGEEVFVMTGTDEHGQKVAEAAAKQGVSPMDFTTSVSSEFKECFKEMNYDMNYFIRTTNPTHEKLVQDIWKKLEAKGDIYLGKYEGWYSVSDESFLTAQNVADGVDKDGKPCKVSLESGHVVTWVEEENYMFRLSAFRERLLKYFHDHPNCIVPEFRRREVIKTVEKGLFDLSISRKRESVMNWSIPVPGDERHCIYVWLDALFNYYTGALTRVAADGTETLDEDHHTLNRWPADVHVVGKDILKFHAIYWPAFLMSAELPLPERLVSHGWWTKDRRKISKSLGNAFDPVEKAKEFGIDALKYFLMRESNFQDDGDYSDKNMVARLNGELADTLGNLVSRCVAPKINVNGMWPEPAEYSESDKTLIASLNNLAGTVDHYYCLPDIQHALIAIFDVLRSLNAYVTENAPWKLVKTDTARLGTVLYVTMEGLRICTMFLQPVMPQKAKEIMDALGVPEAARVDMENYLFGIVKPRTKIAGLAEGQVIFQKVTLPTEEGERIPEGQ

Mtb heat-shock: 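Assay on Mycobacterium tuberculosis, filed only as a heat shock assay from Cornell; the read-out is not stated. The concentration is filed as 10 mM, unlikely as a test dose, so the dose is not known. Direction is inferred from retests: higher values go with stronger inhibition. Of about 69,000 compounds tested this way, about 930 (1.4%) reached 50% or more in at least one test.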
LdMetRS: 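Methionyl-tRNA synthetase (putative), Leishmania donovani (UniProt E9BF75). Primary screen of methionyl-tRNA synthetase; the read-out is not stated. The test concentration is not given. Values are per cent inhibition. About 68,000 compounds were tested under these conditions; 0.035% (about 24) showed 50% or more at least once.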
Mtb growth Cornell: 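Whole-cell assay for inhibitors of Mycobacterium tuberculosis growth, labelled Cornell in the record; the read-out is not stated. The concentration is filed as 10 mM, unlikely as a test dose, so the dose is not known. The record gives no direction; compounds strong in two other growth screens of this library score well above the rest, so higher reads as stronger inhibition. Of about 53,000 compounds tested this way, about 900 (1.7%) reached 50% or more in at least one test.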

Results are percentages, as filed. The record does not define 0% and 100%; most values in the screen are far below 50% and negative numbers occur (in some assays of this library far below -100). Compounds were drawn at random from those tested, without regard to their results. A dash means the value is not listed here; it may have been measured.

Compound,Mtb heat-shock,LdMetRS,Mtb growth Cornell
Cc1nnc(C2CCN(C(=O)c3cnc4ccccc4n3)CC2)s1,-10.75%,9.353%,3.644%
COc1cc(CNCCn2cccn2)c2c(c1)CC(C)O2 (stereo not given),-39.53%,2.717%,-4.155%
COc1cccc2c1CCC2NC(=O)NCc1csc(N(C)C)n1 (stereo not given),0.778%,7.326%,-
Fc1ccc(OCCCNC2=NCCCN2)cc1.I,16.4%,-,15.48%
Cc1nn(C)c(C)c1C1CCCN1C(=O)c1ccc(N(C)C)nn1 (stereo not given),-1.482%,18.62%,-33.04%
COCC(C)NC(=O)Nc1cc(-c2ccccc2C)nn1CCO (stereo not given),-3.408%,12.97%,15.22%
Cc1cc(C(F)(F)F)nc(CNC(=O)CCC2CCCCN2C)n1 (stereo not given),-23.25%,9.964%,27.08%
[H][C@@]12CN(CC3CCC3)C[C@]1(C(=O)O)CN(c1cnccn1)C2,12.8%,-,-22.23%
[H][C@@]12CN(Cc3cc4ccccc4o3)C[C@]1([H])N(Cc1ccccn1)C(=O)O2,13.67%,-,-11.85%
CNc1ccnc(N2C[C@@H](C)[C@](O)(C3CCC3)C2)n1,-2.481%,8.042%,-2.635%
CCCc1ccc(CN2CCC3(CCC(=O)N(C(C)C(=O)O)C3)CC2)o1 (stereo not given),-25.62%,10.84%,-5.358%
COc1ccc2[nH]c(=O)c(CN(C)CCN3CCCC3)cc2c1,-20.51%,8.04%,-7.85%
CN(CCc1nc(-c2cccc(Cl)c2)no1)CCn1cccn1,-12.54%,0.6211%,-
CC(NC(=O)NCc1cccnc1N(C)C)c1ccc(F)cc1 (stereo not given),-45.13%,17.34%,0.5976%
Cc1nncn1CCNC(=O)C(C)(C)c1cccc(F)c1,-1.448%,15.19%,-
COc1ccccc1CN1CCC2(CC1)CC(Oc1ccccn1)CO2 (stereo not given),-0.3655%,9.408%,-
Cc1noc(C)c1C(=O)N1CC[C@]2(C[C@@H](OCc3cccnc3)CO2)C1.O=C(O)C(F)(F)F,-6.994%,-,30.7%
CCC(=O)NCC(c1ccc(SC)cc1)N1CCc2sccc2C1 (stereo not given),-29.05%,9.492%,-
COc1cc(NCCNC(=O)c2cscc2C)cc(OC)c1,1.75%,9.581%,45.18%
Cc1ccc(C(=O)NCCC2CN(C3CCCC3)CCO2)c(C)c1 (stereo not given),-8.684%,19.05%,26.88%
CCc1nc(CN2CCCN(C(=O)COC)CC2)cs1,18.86%,6.789%,-42.53%
O=C(O)c1ccc2[nH]cc(CN3CCOCC3)c2c1,6.871%,13.04%,-30.24%
COCCn1cc2c(n1)C(CNS(C)(=O)=O)OCC2 (stereo not given),-31.22%,13.2%,-
Cc1nnc2n1CCN(C(C(=O)NC(C)C)c1ccccc1)C2 (stereo not given),-13.68%,3.242%,-
Cc1cc(C)n(CC2CCCCN2CCCS(=O)(=O)N(C)C)n1 (stereo not given),-25.96%,9.699%,-5.517%
Cc1ccc(-c2cc(CNC(=O)N3CCC(N(C)C)CC3)on2)cc1,-14.49%,0.5587%,-
Cc1n[nH]c(C2CN(Cc3csc(C4CCCC4)n3)CCO2)n1 (stereo not given),23.77%,6.534%,-
COc1ccc(COCC(O)CNC(=O)c2ccc(C#N)cc2)cc1 (stereo not given),-0.8007%,20.92%,-13.52%
CCOc1ccc(Br)cc1-c1cc(N)[nH]n1.Cl,3.82%,-,-17.72%
COc1ccc(C2(CNC(C)c3nnc(C)o3)CCCCC2)cc1 (stereo not given),14.38%,6.159%,-
Cc1cccc(NC(=O)C2CSCN2C(=O)c2cnccn2)c1C (stereo not given),13.91%,17.21%,-
CCn1ccnc1CN1CCN(CCOc2ccccc2OC)CC1,9.62%,7.143%,-
Cc1ccccc1N1CC2(CCN(c3nncs3)C2)CC1=O (stereo not given),-23.23%,17.77%,-
Cc1c(CN2CCCC(C(=O)Nc3ccccc3)C2)cc(C#N)n1C (stereo not given),11.03%,2.842%,0.3959%
CN(Cc1ccc(F)cc1)C(=O)CN1CCOC(Cn2cccn2)C1 (stereo not given),-2.748%,15.3%,-
Cc1ccc(C(=O)N2CCC3(CC2)COC(COc2cccnc2)C3)o1.O=C(O)C(F)(F)F (stereo not given),-31.88%,-,31.13%
CS(=O)(=O)NC1CCCN(C(=O)NCc2cccc(F)c2)C1 (stereo not given),-11.52%,19.34%,-
O=C([C@H]1CCCO1)N1CCc2ncnc(C3CC3)c2CC1,-5.613%,15.71%,32.21%
Cc1ccc(NCC2(O)CCNCC2)cc1C,14.65%,13.48%,-25.1%
CSCCCN1CCc2nc(N(C)C)nc(N3CCC(O)CC3)c2C1,-8.582%,9.964%,-
CN1CCCn2c(nc(CNC(=O)c3ccsc3)cc2=O)C1.O=C(O)C(F)(F)F,-6.797%,-,7.742%
CC(CCc1ccc(F)c(F)c1)NS(=O)(=O)Cc1ccon1 (stereo not given),-1.992%,12.91%,-10.04%
Cn1cc(S(=O)(=O)N2CCCC2CC(=O)c2cccs2)cn1 (stereo not given),-13.79%,8.333%,-
Cc1nccc(C(=O)N2CCOC(c3nc(C(C)C)n[nH]3)C2)n1 (stereo not given),2.419%,10.5%,-
CC/N=c1/c(NC(=O)NCCOC)c(O)oc2ccccc12,-17.25%,27.54%,-41.4%
CC(C)NC(=O)N1CCC2(COCc3cnc(-c4ccccc4)nc32)C1 (stereo not given),8.296%,6.989%,-4.663%
Cc1noc(C)c1CN1CC[C@@H]2O[C@@H](COCC3CC3)CC[C@@H]21,-,10.1%,-
[H][C@@]12CCN(C(=O)COc3ccccc3)[C@]1([H])CC(=O)N2CCOC,-1.075%,-,-26.23%
CCn1nc(CC(C)C)cc1C(=O)N1CCN([C@H]2CCCC[C@@H]2O)CC1,1.57%,-,-
Cc1nc(CN2CCCN(C(=O)c3ccn(C)c(=O)c3)CC2)cs1,-9.655%,4.178%,-39.9%
CCc1nc(NC2CCCN(C(=O)C3CC3)C2)c2cnn(C)c2n1 (stereo not given),-2.435%,2.88%,13.23%
CC(C)CC(CNC(=O)c1cccnc1Oc1cccnc1)N(C)C (stereo not given),-5.543%,9.699%,15.97%
CNc1nc(CNC(=O)Nc2ccccc2-c2noc(C)n2)cs1,8.945%,7.143%,-
Cn1cc(CC(=O)N2CCC(Nc3cccnn3)CC2)c2ccccc21,17.24%,11.5%,19.73%
CCC(=O)N1CCC2(CCN(Cc3cccc(F)c3)CC2)CC1,-,15.96%,-
[H][C@@]12CCN(C(=O)C3CCCO3)[C@]1([H])CCC(=O)N2Cc1csc(C)n1 (stereo not given in full),2.576%,-,13.38%
O=C(N1CCOCC1)N1CCc2ncnc(NC3CCC3)c2CC1,-,15.06%,-
CCn1nc(C)c(CN(CCCOC)Cc2ccccn2)c1C.O=C(O)CC(O)(CC(=O)O)C(=O)O,-18.05%,-,-36.04%
CC(=O)NCCNC(=O)CCn1c(C)cc2ccccc21,-9.654%,11.05%,15.36%
Cc1cc(NCCS(C)(=O)=O)n2nc(C)cc2n1,3.849%,1.804%,-10.95%
O=C1CSC(C(F)(F)F)c2c(O)nn(C3CCCCC3)c2N1 (stereo not given),-12.02%,-0.5831%,-0.5771%
CC(C)c1nccn1C1CCCN(C(=O)c2nccnc2N)C1 (stereo not given),-18.62%,1.143%,-43.33%
CNC(=O)c1cn[nH]c1C1CCCN1c1nc(C)cc(C)n1 (stereo not given),-6.597%,14.36%,20.79%
CCc1c(C)nc2n(c1=O)CC(C(=O)Nc1ccccc1F)CS2 (stereo not given),-1.125%,18.63%,17.31%
CNCc1nc(-c2ccc3c(c2)OCO3)c[nH]1.Cl.Cl,-12.33%,-,-10.15%
CC(C)n1ccnc1CNC(=O)c1cccc(CCC(C)(C)O)c1,-18.23%,13.94%,-
CN(CC(=O)N1CCC(Oc2ccccc2)CC1)c1cnccn1,0.9533%,15.56%,9.341%
Cc1cnc(CN2C[C@H]3C[C@H](Oc4ccccc4)C[C@H]3C2)cn1,-,0%,-
COCC1CCCN(C(=O)c2ccc(N(C)Cc3cnn(C)c3)nc2)C1 (stereo not given),-12.64%,9.561%,-1.511%
COCCn1ccc2cc(NC(=O)COC)ccc21,-9.887%,0.5222%,-58.89%
O=S(=O)(NCC(O)c1ccoc1)c1ccc(Br)s1 (stereo not given),9.301%,8.257%,17.19%
[H][C@@]12CCN(C[C@@H]1CN(C)CCN(C)C)[C@@H](CNC(=O)Nc1ccsc1)C2,6.756%,-,-
CCCC(=O)NCCc1cc(NC)nc(-c2ccccn2)n1,12.39%,8.14%,8.218%
CC(C)c1nccn1-c1cncc(C2CCCN(C3CCCC3)C2)n1 (stereo not given),-25.42%,7.294%,-

6 of the entries, repeated:

| Compound | Mtb heat-shock | LdMetRS | Mtb growth Cornell |
|---|---|---|---|
| `COc1ccc(C2(CNC(C)c3nnc(C)o3)CCCCC2)cc1` (stereo not given) | 14.38% | 6.159% | - |
| `CC(C)c1nccn1-c1cncc(C2CCCN(C3CCCC3)C2)n1` (stereo not given) | -25.42% | 7.294% | - |
| `COc1ccccc1CN1CCC2(CC1)CC(Oc1ccccn1)CO2` (stereo not given) | -0.3655% | 9.408% | - |
| `O=C1CSC(C(F)(F)F)c2c(O)nn(C3CCCCC3)c2N1` (stereo not given) | -12.02% | -0.5831% | -0.5771% |
| `[H][C@@]12CCN(C(=O)C3CCCO3)[C@]1([H])CCC(=O)N2Cc1csc(C)n1` (stereo not given in full) | 2.576% | - | 13.38% |
| `Cc1nc(CN2CCCN(C(=O)c3ccn(C)c(=O)c3)CC2)cs1` | -9.655% | 4.178% | -39.9% |